Measured values published in publication PMC4931556.

Biological target: T1, N-FLAG-2xSTREP-SEPT6 (UniProt Q14141)
T1 sequence: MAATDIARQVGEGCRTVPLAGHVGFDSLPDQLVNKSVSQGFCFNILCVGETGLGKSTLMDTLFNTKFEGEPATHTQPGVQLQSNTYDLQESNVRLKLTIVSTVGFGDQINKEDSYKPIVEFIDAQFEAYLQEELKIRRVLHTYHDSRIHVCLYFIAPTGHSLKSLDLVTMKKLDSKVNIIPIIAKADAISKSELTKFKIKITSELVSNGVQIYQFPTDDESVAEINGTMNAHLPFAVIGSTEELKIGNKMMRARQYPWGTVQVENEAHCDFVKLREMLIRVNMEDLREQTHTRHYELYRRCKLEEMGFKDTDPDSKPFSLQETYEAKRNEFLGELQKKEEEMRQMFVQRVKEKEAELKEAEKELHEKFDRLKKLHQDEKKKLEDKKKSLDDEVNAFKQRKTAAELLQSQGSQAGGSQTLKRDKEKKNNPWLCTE
Experiment: affinity purification with mass spectrometry; tandem affinity purification of FLAG-2xSTREP-SEPT6 from lysates of transfected HeLa cells (ANTI-FLAG M2 magnetic beads, 3xFLAG peptide elution, then STREP-Tactin magnetic beads, 2 h each at room temperature); lysis buffer 10 mM Tris/Cl pH 7.5, 150 mM NaCl, 0.5 mM EDTA, 0.5% Triton X-100; cells infected with S. flexneri M90T AfaI for 4 h (septins also found in transfected non-infected cells)

B1: SEPT11 (protein, UniProt Q9NVA2 1-429)
chain: MAVAVGRPSNEELRNLSLSGHVGFDSLPDQLVNKSTSQGFCFNILCVGETGIGKSTLMDTLFNTKFESDPATHNEPGVRLKARSYELQESNVRLKLTIVDTVGFGDQINKDDSYKPIVEYIDAQFEAYLQEELKIKRSLFNYHDTRIHACLYFIAPTGHSLKSLDLVTMKKLDSKVNIIPIIAKADTIAKNELHKFKSKIMSELVSNGVQIYQFPTDEETVAEINATMSVHLPFAVVGSTEEVKIGNKMAKARQYPWGVVQVENENHCDFVKLREMLIRVNMEDLREQTHTRHYELYRRCKLEEMGFKDTDPDSKPFSLQETYEAKRNEFLGELQKKEEEMRQMFVMRVKEKEAELKEAEKELHEKFDLLKRTHQEEKKKVEDKKKELEEEVNNFQKKKAAAQLLQSQAQQSGAQQTKKDKDKKNASFT
- binding: binds

These are yes or no findings as the source states them, for the method shown. In cells and extracts the contact can be indirect. A yes stands for co-enrichment or nearness to the bait. Other partners may have been found. Tags and fused reporters may be left off the sequences shown.
